For some of these results: Negatives hold for the conditions tested. For some of these results: For at least one entry, the source does not settle the construct or the ends of the probe.
Experiments:
[1] = biological target: hcGAS K187N/L195R (hcGAS*) (Homo sapiens) (UniProt Q8N884); assay: structure; settings: 2.3 A binary complex (6CT9) and 2.8 A ternary complex with ATP/Mg (6CTA); 2:2 cGAS:DNA; purified recombinant protein; protein details: untagged (6xHis-SUMO2 removed with SENP2)
[2] = biological target: full-length hcGAS (Homo sapiens) (UniProt Q8N884); assay: activity assay; settings: DNA-stimulated 2'3' cGAMP synthesis, purified recombinant protein, protein details: expressed as 6xHis-SUMO2 fusion
[3] = biological target: full-length hcGAS K187N/L195R (Homo sapiens) (UniProt Q8N884); assay: activity assay; settings: DNA-stimulated 2'3' cGAMP synthesis; purified recombinant protein; protein details: expressed as 6xHis-SUMO2 fusion
[4] = biological target: hcGAS K187N/L195R (hcGAS*) (Homo sapiens) (UniProt Q8N884); assay: activity assay; settings: DNA-stimulated 2'3' cGAMP synthesis, purified recombinant protein, protein details: untagged (6xHis-SUMO2 removed with SENP2)
[5] = biological target: hcGAS catalytic domain WT (Homo sapiens) (UniProt Q8N884); assay: activity assay; settings: DNA-stimulated 2'3' cGAMP synthesis (TLC), 5 mM Mg, 37 C, purified recombinant protein, protein details: untagged (6xHis-SUMO2 removed with SENP2)
[6] = biological target: mcGAS catalytic domain WT (UniProt Q8C6L5); assay: activity assay; settings: purified recombinant protein, protein details: untagged (6xHis-SUMO2 removed with SENP2)
[7] = biological target: mcGAS humanized K187/L195 N172K,R180L (UniProt Q8C6L5); assay: activity assay; settings: DNA-stimulated 2'3' cGAMP synthesis, purified recombinant protein, protein details: untagged (6xHis-SUMO2 removed with SENP2)

Protein sequences, listed by entry. Tags and fused reporters are not part of them. Residues count along the entry.
UniProt Q8N884, 157-522 K187N/L195R: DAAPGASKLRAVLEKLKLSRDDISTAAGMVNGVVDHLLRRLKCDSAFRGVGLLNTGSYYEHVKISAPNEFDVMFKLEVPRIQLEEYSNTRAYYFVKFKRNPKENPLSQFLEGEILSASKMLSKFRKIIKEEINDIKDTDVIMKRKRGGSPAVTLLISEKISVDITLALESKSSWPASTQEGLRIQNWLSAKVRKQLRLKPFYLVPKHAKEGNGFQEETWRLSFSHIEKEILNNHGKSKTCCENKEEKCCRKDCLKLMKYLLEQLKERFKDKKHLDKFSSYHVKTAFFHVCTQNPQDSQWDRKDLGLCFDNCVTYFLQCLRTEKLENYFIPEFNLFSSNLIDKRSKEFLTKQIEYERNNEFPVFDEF
UniProt Q8N884, whole entry: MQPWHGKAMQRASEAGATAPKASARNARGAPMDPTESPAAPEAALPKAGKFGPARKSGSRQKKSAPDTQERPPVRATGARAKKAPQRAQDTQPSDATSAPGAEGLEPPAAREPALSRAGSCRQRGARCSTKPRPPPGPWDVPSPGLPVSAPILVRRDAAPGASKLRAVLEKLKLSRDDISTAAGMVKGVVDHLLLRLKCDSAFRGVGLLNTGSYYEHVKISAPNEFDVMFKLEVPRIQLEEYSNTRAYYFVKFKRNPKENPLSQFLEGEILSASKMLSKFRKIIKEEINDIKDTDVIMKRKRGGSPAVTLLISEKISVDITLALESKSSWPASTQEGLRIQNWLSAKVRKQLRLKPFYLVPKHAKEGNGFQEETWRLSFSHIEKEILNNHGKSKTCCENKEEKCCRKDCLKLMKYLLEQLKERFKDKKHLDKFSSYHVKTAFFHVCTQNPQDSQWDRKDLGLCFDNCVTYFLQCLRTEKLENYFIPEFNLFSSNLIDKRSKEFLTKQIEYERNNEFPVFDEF
UniProt Q8N884, whole entry K187N/L195R: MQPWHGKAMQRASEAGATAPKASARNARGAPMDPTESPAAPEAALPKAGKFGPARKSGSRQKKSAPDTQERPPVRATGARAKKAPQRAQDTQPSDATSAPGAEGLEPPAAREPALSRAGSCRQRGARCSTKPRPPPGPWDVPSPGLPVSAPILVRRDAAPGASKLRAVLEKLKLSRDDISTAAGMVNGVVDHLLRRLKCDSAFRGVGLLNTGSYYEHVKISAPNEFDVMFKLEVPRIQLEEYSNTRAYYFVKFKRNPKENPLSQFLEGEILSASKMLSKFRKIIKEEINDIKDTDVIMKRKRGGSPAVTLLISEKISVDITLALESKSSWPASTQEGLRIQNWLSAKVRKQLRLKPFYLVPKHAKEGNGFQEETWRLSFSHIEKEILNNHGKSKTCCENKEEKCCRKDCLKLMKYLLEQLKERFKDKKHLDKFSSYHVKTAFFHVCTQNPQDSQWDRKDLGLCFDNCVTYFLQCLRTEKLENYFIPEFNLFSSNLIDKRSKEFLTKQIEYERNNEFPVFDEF
UniProt Q8N884, 157-522: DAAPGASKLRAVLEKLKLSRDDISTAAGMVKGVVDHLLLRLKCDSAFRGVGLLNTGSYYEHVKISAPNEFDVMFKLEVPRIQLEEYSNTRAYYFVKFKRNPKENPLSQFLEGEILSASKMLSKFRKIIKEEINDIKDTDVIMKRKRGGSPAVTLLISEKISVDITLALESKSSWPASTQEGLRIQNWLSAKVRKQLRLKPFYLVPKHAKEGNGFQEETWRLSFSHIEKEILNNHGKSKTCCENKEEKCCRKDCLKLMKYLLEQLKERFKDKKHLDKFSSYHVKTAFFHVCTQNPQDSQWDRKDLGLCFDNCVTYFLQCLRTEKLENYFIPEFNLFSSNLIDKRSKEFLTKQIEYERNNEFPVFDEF
UniProt Q8C6L5, 147-507: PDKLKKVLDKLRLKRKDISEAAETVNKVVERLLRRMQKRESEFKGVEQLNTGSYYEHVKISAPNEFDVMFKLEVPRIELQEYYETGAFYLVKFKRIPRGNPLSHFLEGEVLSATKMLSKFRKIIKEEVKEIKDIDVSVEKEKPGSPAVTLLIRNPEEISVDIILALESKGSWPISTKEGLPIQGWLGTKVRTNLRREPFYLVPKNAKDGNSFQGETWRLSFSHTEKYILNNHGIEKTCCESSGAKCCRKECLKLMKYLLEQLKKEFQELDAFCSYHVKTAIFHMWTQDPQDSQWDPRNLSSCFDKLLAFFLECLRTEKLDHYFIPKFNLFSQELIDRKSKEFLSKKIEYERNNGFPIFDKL
UniProt Q8C6L5, 147-507 N172K/R180L: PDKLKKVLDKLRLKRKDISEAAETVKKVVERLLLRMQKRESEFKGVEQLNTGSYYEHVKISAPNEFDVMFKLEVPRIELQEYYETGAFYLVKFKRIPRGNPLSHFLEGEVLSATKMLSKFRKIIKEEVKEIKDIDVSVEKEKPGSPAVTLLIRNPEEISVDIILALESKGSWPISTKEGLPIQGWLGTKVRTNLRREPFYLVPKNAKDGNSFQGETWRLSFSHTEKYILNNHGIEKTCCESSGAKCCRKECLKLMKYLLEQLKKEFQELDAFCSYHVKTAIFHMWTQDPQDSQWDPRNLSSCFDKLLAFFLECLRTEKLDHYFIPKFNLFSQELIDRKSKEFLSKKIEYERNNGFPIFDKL

Sequence: AAATTGCCGAAGACGAA / TTTCGTCTTCGGCAATT [17 bp DNA]
- binding result [1]: binds
- functional effect ([2]; not activated by short DNA): not active
- functional effect [3]: active
- functional effect ([4]; full activation): active
- functional effect ([5]; inactive with 17 bp DNA): not active
- functional effect ([6]; DNA-stimulated 2'3' cGAMP synthesis, near equal efficiency to 45 bp): active
- functional effect ([7]; recognition of 17 bp abolished): not active

Sequence: TACAGATCTACTAGTGATCTATGACTGATCTGTACATGATCTACA (double strand) [45 bp interferon stimulatory DNA]
- functional effect [2]: active
- functional effect [3]: active
- functional effect ([4]; nearly equal to mcGAS): active
- functional effect ([5]; ~20-fold less efficient than mcGAS): active
- functional effect ([6]; DNA-stimulated 2'3' cGAMP synthesis (TLC), 5 mM Mg, 37 C): active
- functional effect ([7]; restrained to human levels): active
